The text below walks through data of doi:10.1101/2020.09.04.282509.

Protein sequences, listed by entry. Tags and fused reporters are not part of them.
UniProt P89441: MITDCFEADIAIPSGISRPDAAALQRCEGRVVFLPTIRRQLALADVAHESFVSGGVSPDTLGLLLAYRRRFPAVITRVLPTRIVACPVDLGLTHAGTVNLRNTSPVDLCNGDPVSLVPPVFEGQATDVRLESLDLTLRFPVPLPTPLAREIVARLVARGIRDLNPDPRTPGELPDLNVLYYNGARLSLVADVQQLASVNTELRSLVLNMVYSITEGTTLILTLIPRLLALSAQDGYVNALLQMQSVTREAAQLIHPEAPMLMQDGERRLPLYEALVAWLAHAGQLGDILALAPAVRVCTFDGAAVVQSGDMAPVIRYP
UniProt P89442: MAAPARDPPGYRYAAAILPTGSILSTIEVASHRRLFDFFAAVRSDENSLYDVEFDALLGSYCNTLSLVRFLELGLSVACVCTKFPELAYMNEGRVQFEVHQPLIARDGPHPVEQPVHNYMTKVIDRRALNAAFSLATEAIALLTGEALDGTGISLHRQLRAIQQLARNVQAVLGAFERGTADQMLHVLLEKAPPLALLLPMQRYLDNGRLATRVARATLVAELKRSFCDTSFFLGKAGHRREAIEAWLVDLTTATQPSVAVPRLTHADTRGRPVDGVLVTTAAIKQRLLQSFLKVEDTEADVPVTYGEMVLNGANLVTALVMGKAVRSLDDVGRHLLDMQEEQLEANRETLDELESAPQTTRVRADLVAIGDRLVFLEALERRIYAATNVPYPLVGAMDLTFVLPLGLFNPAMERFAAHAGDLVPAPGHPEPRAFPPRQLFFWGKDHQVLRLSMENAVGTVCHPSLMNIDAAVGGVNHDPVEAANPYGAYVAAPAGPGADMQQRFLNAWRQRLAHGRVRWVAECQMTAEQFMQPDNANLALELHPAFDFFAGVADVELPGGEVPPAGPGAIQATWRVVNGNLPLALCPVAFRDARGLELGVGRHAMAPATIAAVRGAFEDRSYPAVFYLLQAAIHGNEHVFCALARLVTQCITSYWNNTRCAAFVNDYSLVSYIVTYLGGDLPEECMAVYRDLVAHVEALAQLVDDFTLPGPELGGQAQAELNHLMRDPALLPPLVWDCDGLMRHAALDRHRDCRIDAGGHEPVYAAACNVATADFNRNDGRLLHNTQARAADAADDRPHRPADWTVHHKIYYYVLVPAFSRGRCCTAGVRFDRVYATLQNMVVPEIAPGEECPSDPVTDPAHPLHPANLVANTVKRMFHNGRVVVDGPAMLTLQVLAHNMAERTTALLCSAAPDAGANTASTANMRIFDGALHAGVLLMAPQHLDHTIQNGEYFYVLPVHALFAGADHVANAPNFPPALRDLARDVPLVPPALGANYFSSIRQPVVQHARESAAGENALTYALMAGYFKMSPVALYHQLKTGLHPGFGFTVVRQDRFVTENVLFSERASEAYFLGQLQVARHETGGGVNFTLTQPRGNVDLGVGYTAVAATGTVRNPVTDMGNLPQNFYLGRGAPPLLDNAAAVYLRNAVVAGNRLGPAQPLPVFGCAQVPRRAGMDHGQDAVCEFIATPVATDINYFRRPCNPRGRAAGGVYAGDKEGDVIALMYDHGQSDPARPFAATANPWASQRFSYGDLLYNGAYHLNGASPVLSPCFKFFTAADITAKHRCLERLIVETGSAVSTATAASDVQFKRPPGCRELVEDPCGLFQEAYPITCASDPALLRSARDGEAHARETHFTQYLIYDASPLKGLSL
UniProt P89461: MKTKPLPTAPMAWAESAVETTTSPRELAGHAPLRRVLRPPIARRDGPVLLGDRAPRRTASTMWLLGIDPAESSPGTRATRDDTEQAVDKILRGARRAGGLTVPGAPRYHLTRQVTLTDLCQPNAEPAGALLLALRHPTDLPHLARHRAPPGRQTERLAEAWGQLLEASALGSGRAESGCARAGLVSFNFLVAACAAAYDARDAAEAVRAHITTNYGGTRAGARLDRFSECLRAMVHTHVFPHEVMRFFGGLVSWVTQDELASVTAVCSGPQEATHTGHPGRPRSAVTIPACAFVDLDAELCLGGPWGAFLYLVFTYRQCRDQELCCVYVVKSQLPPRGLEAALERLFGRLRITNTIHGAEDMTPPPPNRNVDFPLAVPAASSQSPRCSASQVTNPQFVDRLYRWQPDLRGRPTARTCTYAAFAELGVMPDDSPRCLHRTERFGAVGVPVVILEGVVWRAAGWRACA
UniProt P89458: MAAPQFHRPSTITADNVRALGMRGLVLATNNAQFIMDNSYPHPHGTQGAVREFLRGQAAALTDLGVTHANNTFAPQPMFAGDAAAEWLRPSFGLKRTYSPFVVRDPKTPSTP

Results are given in words; binding and its absence hold for the method and conditions named. Some entries that bind do so weakly or less than the wild type.

The target of test [1] is VP23 triplex protein of Herpes simplex virus type 2 (HSV-2) (Herpes simplex virus type 2) (UniProt P89441). Nature of the test: cryo-EM structure.
The target in test [2] is VP5 capsid protein of Herpes simplex virus type 2 (HSV-2) (Herpes simplex virus type 2) (UniProt P89442). Nature of the test: cryo-EM structure.

In the case of “VP19C triplex protein of Herpes simplex virus type 2 (HSV-2) (from UniProt P89461 1-466)”, the binding entry in test [1] and in test [2] was “binds” each time.
On to “VP23 triplex protein of Herpes simplex virus type 2 (HSV-2) (from UniProt P89441 1-318)”, for which, in test [2], the binding entry is recorded as “binds”.
Still for that read-out and setting: the entry for “VP26 capsid protein of Herpes simplex virus type 2 (HSV-2) (from UniProt P89458 1-112)” is “binds”.
